The text below walks through data of paper PMC12886786.

Amino acid sequences for entries named in this document (tags omitted). A change or cut given only in a name is not applied to a line headed by its entry.
UniProt O60331: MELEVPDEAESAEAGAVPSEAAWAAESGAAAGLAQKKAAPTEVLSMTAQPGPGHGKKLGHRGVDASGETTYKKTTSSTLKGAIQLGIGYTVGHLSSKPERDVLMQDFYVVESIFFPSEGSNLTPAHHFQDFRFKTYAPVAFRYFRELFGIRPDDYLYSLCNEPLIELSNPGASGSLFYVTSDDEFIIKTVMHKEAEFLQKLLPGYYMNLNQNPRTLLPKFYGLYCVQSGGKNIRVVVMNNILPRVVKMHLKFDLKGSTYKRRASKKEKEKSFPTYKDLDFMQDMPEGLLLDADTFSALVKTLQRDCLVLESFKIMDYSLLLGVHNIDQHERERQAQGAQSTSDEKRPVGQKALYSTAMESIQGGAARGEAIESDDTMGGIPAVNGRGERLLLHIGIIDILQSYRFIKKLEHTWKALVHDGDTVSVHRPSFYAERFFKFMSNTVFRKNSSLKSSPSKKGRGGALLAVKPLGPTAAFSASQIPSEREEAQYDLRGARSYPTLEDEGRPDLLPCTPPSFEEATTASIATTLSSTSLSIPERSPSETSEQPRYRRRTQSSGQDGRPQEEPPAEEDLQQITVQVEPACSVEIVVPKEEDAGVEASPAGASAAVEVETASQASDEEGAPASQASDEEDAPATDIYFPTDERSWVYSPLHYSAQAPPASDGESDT
UniProt O14578: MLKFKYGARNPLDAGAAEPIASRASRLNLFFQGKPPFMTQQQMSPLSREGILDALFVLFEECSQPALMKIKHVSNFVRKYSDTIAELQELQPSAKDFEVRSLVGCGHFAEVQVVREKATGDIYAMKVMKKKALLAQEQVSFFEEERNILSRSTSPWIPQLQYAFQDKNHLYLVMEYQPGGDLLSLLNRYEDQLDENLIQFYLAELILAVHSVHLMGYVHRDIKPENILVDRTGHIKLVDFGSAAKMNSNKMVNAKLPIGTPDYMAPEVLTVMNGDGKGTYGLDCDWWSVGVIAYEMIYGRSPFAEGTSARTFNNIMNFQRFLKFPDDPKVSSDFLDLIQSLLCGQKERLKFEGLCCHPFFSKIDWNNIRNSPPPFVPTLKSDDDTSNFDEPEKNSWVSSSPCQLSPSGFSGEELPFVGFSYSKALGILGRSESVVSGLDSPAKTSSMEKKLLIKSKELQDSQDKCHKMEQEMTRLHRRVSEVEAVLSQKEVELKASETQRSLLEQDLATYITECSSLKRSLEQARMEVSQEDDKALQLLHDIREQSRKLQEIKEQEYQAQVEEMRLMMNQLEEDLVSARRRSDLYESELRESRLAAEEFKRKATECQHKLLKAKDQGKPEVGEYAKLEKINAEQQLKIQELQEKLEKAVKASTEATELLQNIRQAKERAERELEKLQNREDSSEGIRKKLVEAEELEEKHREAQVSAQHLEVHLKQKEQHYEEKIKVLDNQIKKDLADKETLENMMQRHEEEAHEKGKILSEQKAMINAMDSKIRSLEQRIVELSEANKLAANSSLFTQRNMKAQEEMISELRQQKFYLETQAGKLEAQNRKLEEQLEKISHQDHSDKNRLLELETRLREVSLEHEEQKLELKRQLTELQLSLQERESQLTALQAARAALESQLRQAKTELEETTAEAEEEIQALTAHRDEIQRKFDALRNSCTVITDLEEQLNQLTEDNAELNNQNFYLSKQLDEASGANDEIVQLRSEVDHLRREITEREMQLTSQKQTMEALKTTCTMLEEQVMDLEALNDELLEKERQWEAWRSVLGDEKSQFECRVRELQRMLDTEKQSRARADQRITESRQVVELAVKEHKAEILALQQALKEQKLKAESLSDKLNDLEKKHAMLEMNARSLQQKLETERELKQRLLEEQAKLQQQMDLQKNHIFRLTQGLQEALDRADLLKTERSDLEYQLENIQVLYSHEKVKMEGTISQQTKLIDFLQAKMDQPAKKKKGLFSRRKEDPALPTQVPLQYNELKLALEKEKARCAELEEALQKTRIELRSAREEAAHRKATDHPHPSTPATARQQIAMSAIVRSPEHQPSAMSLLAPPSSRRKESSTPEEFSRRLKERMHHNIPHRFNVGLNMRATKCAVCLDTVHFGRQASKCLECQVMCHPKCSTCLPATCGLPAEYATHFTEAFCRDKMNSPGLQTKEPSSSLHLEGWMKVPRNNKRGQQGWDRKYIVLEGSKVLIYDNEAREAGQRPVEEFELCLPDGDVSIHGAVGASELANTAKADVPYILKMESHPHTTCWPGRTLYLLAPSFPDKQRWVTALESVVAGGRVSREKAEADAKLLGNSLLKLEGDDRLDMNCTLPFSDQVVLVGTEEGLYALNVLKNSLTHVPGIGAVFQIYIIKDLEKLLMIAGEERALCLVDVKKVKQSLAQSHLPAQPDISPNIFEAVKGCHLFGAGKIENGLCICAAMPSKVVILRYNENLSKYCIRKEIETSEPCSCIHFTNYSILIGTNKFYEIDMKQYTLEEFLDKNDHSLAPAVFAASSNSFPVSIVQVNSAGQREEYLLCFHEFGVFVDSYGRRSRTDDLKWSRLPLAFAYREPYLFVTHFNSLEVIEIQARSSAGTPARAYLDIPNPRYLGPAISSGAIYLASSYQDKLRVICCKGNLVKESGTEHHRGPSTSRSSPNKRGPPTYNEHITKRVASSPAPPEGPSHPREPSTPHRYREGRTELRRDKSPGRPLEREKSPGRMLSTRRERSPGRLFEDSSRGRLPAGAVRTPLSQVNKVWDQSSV

The target in assay [1] is T1, endogenous SEPT2 (HeLa) (human (endogenous in HeLa)) (UniProt Q15019).
T1 sequence: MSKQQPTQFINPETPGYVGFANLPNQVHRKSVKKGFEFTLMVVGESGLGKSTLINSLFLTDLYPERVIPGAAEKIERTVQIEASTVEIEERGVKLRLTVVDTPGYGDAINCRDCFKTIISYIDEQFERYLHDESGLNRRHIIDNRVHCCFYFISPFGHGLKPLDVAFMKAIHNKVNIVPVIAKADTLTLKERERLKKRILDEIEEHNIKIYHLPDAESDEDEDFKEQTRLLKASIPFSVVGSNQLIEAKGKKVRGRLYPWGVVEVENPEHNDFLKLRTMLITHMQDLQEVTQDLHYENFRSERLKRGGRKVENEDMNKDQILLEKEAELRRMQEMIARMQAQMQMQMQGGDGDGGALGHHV
In words: co-IP; endogenous SEPT2 immunoprecipitated (rabbit anti-SEPT2 on protein A/G magnetic beads, 3-4 h at 4 °C) from lysates of HeLa cells in cytokinesis or arrested in S-phase by thymidine; Western blot.

For assay [2], the target named is endogenous PIPKIγ (HeLa) (human (endogenous in HeLa)) (UniProt O60331). In words: co-IP; endogenous PIPKIγ immunoprecipitated (rabbit anti-PIPKIγ on protein A/G magnetic beads, 3-4 h at 4 °C) from lysates of HeLa cells in cytokinesis or arrested in S-phase by thymidine; Western blot. In general terms: Immunoblotting shows a protein as a band on a membrane.

Results are given in words; binding and its absence hold for the method and conditions named. Binding seen in cells or lysates may run through a third protein. Binding calls can cover weak binding; strength is not graded here.

Turning to “endogenous PIPKIγ (HeLa) (from UniProt O60331-3) (enzyme)”, the binding result in assay [1] is recorded as “binds”.

For the molecule “citron kinase (from UniProt O14578 1-2027)”, the binding result in assay [2] is “binds”.

B1: anillin (protein, UniProt Q9NQW6 1-1124)
chain: MDPFTEKLLERTRARRENLQRKMAERPTAAPRSMTHAKRARQPLSEASNQQPLSGGEEKSCTKPSPSKKRCSDNTEVEVSNLENKQPVESTSAKSCSPSPVSPQVQPQAADTISDSVAVPASLLGMRRGLNSRLEATAASSVKTRMQKLAEQRRRWDNDDMTDDIPESSLFSPMPSEEKAASPPRPLLSNASATPVGRRGRLANLAATICSWEDDVNHSFAKQNSVQEQPGTACLSKFSSASGASARINSSSVKQEATFCSQRDGDASLNKALSSSADDASLVNASISSSVKATSPVKSTTSITDAKSCEGQNPELLPKTPISPLKTGVSKPIVKSTLSQTVPSKGELSREICLQSQSKDKSTTPGGTGIKPFLERFGERCQEHSKESPARSTPHRTPIITPNTKAIQERLFKQDTSSSTTHLAQQLKQERQKELACLRGRFDKGNIWSAEKGGNSKSKQLETKQETHCQSTPLKKHQGVSKTQSLPVTEKVTENQIPAKNSSTEPKGFTECEMTKSSPLKITLFLEEDKSLKVTSDPKVEQKIEVIREIEMSVDDDDINSSKVINDLFSDVLEEGELDMEKSQEEMDQALAESSEEQEDALNISSMSLLAPLAQTVGVVSPESLVSTPRLELKDTSRSDESPKPGKFQRTRVPRAESGDSLGSEDRDLLYSIDAYRSQRFKETERPSIKQVIVRKEDVTSKLDEKNNAFPCQVNIKQKMQELNNEINMQQTVIYQASQALNCCVDEEHGKGSLEEAEAERLLLIATGKRTLLIDELNKLKNEGPQRKNKASPQSEFMPSKGSVTLSEIRLPLKADFVCSTVQKPDAANYYYLIILKAGAENMVATPLASTSNSLNGDALTFTTTFTLQDVSNDFEINIEVYSLVQKKDPSGLDKKKKTSKSKAITPKRLLTSITTKSNIHSSVMASPGGLSAVRTSNFALVGSYTLSLSSVGNTKFVLDKVPFLSSLEGHIYLKIKCQVNSSVEERGFLTIFEDVSGFGAWHRRWCVLSGNCISYWTYPDDEKRKNPIGRINLANCTSRQIEPANREFCARRNTFELITVRPQREDDRETLVSQCRDTLCVTKNWLSADTKEERDLWMQKLNQVLVDIRLWQPDACYKPIGKP
For B1, in assay [2], the binding entry is “no binding”.

B2: mitotic kinesin-like protein 1 (MKLP1) (protein, UniProt Q02241 1-960)
chain: MKSARAKTPRKPTVKKGSQTNLKDPVGVYCRVRPLGFPDQECCIEVINNTTVQLHTPEGYRLNRNGDYKETQYSFKQVFGTHTTQKELFDVVANPLVNDLIHGKNGLLFTYGVTGSGKTHTMTGSPGEGGLLPRCLDMIFNSIGSFQAKRYVFKSNDRNSMDIQCEVDALLERQKREAMPNPKTSSSKRQVDPEFADMITVQEFCKAEEVDEDSVYGVFVSYIEIYNNYIYDLLEEVPFDPIKPKPPQSKLLREDKNHNMYVAGCTEVEVKSTEEAFEVFWRGQKKRRIANTHLNRESSRSHSVFNIKLVQAPLDADGDNVLQEKEQITISQLSLVDLAGSERTNRTRAEGNRLREAGNINQSLMTLRTCMDVLRENQMYGTNKMVPYRDSKLTHLFKNYFDGEGKVRMIVCVNPKAEDYEENLQVMRFAEVTQEVEVARPVDKAICGLTPGRRYRNQPRGPVGNEPLVTDVVLQSFPPLPSCEILDINDEQTLPRLIEALEKRHNLRQMMIDEFNKQSNAFKALLQEFDNAVLSKENHMQGKLNEKEKMISGQKLEIERLEKKNKTLEYKIEILEKTTTIYEEDKRNLQQELETQNQKLQRQFSDKRRLEARLQGMVTETTMKWEKECERRVAAKQLEMQNKLWVKDEKLKQLKAIVTEPKTEKPERPSRERDREKVTQRSVSPSPVPLSSNYIAQISNGQQLMSQPQLHRRSNSCSSISVASCISEWEQKIPTYNTPLKVTSIARRRQQEPGQSKTCIVSDRRRGMYWTEGREVVPTFRNEIEIEEDHCGRLLFQPDQNAPPIRLRHRRSRSAGDRWVDHKPASNMQTETVMQPHVPHAITVSVANEKALAKCEKYMLTHQELASDGEIETKLIKGDIYKTRGGGQSVQFTDIETLKQESPNGSRKRRSSTVAPAQPDGAESEWTDVETRCSVAVEMRAGSQLGPGYQHHAQPKRKKP
Take B2: the binding entry in assay [2] is reported as “binds”.
